{"source": "patent US4042695A", "about": "“Thiaxanthene derivatives, compositions thereof and methods of treating therewith” (priority 1972, dated 1977)", "test": "Pharmacological tests (test not specified)", "conditions": "in vivo", "note": "For at least one compound, name, drawing or mass did not settle the structure."}
{"smiles": "OCCC1CCN(CCC=C2c3ccc(F)cc3Sc3ccc(C(F)(F)F)cc32)CC1", "note": "(single isomer, unassigned; isomer 2) [Example 12 beta-isomer, 2-trifluoromethyl-6-fluoro-9-(3-(4-(2-hydroxyethyl)-1-piperidyl)propylidene)thiaxanthene]", "values": [{"measurement": "pharmacological activity of the isomer (in words)", "result": "pharmacologically inactive"}]}
